Results taken from patent US7662780B2, “Administering hypocretin to obese individuals” (The Regents of the University of California, priority 2003, dated 2010).

Experiments:
[1] = Hcrt-1 level by solid-phase RIA in narcoleptic dog
[2] = Hcrt-1 level by solid-phase RIA in normal human

“hypocretin-1 (QPLPDCCRQKTCSCRLYELLHGAGNHAAGILTL; Orexin-A; UniProt O43612 34-66, looked up) [Hcrt-1, hypocretin neuropeptide derived from prepro-hypocretin; human orexin-A is reported as a 33 residue peptide of 3562 Da]” gave a Mean level ([1]; Blood serum) of 11 fmol/mL, a Mean level ([1]; Cerebrospinal fluid) of 53 fmol/mL and a Mean level ([2]; Blood serum) of 10 fmol/mL. It also gave a Mean level ([2]; Cerebrospinal fluid) of 62 fmol/mL.
